Our source for the binding values is publication doi:10.1101/2023.08.13.546412 (bioRxiv, 2023).

Assay [1] addresses T1, WOX5-YFPN (WUSCHEL-RELATED HOMEOBOX 5 fused to the N-terminal half of YFP) (Arabidopsis thaliana) (UniProt Q8H1D2).
T1 sequence: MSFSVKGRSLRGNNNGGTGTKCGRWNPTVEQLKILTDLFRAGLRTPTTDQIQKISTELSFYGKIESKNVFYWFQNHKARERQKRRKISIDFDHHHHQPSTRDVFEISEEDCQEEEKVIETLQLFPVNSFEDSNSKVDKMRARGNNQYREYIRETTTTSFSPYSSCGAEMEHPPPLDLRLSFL
As to the kind of experiment: split reporter.

In assay [2] the target is T2, MBP-WOX5 (Arabidopsis thaliana) (UniProt Q8H1D2).
T2 sequence: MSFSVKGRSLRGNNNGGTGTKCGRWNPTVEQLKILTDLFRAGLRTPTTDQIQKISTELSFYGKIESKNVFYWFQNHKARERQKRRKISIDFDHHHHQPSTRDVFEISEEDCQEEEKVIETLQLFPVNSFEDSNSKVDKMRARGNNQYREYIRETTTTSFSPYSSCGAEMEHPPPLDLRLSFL
As to the kind of experiment: pull-down.

Assay [3] concerns the target T3, WOX5-YFP (Arabidopsis thaliana) (UniProt Q8H1D2).
T3 sequence: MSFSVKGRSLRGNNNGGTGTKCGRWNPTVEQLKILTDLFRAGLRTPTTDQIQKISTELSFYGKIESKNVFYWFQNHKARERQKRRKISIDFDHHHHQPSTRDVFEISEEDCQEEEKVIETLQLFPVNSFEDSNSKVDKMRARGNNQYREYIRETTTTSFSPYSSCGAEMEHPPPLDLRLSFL
In words: co-IP.

Assay [4] concerns the target AtSK32-BD (Arabidopsis SHAGGY-like kinase 32, yeast two-hybrid fusion) (Arabidopsis thaliana). As to the kind of experiment: two-hybrid.
For assay [5], the target named is AtSK31-BD (Arabidopsis SHAGGY-like kinase 31, yeast two-hybrid fusion) (Arabidopsis thaliana). In words: two-hybrid.

These are yes or no findings as the source states them, for the method shown. For part of these data: Binding can be weak; no strength is given. Tags and fused reporters may be left off the sequences shown. For part of these data: In cells and extracts the contact can be indirect.

Take “AtPP2A-C3-YFPC (Arabidopsis thaliana) (enzyme)”: the binding result in assay [1] is given as “binds”.

For the molecule “GST-AtPP2A-C4 (Arabidopsis thaliana) (enzyme)”, the binding result in assay [2] is “binds”.

With “Flag-AtPP2A-C4 (Arabidopsis thaliana) (enzyme)”, in assay [3], the binding result is “binds”.

Consider “GST-AtPP2A-C3 (Arabidopsis thaliana) (enzyme)”, for which the binding result in assay [2] was “binds”.

Take “HAM4-YFPC (HAIRY MERISTEM 4) (Arabidopsis thaliana)”: the binding result in assay [1] is on record as “binds”.

With “AtPP2A-C4-YFPC (Arabidopsis thaliana) (enzyme)”, the binding result in assay [1] is on record as “binds”.

On to “Flag-AtPP2A-C3 (Arabidopsis thaliana) (enzyme)”, for which the binding result in assay [3] was “binds”.

B1: WOX5-AD (WUSCHEL-RELATED HOMEOBOX 5, yeast two-hybrid fusion) (protein, UniProt Q8H1D2 1-182)
chain: MSFSVKGRSLRGNNNGGTGTKCGRWNPTVEQLKILTDLFRAGLRTPTTDQIQKISTELSFYGKIESKNVFYWFQNHKARERQKRRKISIDFDHHHHQPSTRDVFEISEEDCQEEEKVIETLQLFPVNSFEDSNSKVDKMRARGNNQYREYIRETTTTSFSPYSSCGAEMEHPPPLDLRLSFL
In the case of B1, the binding entry in assay [4] and in assay [5] was “no binding” throughout.
